Experimental findings from PMC5989216 are described below.

The chains behind the UniProt entries cited, without tags or fusion partners.
UniProt Q04781: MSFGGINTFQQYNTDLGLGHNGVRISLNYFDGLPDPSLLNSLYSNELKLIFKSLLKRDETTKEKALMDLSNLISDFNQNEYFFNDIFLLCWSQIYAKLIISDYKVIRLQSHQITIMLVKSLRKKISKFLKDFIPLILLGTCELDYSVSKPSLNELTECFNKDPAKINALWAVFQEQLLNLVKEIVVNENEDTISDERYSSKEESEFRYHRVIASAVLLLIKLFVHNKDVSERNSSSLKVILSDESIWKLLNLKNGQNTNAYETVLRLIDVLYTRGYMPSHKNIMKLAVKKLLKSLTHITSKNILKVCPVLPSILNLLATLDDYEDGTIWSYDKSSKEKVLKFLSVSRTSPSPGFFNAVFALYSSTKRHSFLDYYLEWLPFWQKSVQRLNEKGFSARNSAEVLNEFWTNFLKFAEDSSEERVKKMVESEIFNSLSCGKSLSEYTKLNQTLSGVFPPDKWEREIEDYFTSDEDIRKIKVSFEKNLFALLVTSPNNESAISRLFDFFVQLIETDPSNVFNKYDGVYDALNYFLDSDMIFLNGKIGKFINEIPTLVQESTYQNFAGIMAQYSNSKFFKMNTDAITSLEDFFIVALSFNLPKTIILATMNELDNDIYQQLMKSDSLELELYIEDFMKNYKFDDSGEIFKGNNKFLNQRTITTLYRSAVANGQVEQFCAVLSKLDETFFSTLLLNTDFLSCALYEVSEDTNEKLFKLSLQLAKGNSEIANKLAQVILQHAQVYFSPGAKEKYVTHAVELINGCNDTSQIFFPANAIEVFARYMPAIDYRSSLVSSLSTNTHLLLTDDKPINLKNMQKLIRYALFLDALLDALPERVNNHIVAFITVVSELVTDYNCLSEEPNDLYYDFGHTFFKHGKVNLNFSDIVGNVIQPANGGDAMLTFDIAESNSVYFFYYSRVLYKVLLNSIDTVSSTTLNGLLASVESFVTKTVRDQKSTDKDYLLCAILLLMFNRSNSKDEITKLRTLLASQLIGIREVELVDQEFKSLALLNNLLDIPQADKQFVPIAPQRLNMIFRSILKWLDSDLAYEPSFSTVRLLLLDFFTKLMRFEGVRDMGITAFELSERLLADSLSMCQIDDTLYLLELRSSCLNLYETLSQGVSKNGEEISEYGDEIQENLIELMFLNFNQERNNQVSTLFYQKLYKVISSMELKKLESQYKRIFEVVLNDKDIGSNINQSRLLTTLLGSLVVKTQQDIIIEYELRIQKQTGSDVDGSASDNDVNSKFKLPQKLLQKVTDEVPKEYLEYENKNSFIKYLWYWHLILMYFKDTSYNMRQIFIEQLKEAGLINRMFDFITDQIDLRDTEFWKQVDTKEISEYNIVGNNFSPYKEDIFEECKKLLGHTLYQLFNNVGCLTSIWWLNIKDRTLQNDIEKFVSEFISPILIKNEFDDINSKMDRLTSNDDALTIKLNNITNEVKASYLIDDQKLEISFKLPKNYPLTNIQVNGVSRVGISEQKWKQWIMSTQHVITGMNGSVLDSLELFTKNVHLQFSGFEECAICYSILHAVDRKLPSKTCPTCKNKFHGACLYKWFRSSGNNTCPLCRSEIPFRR
UniProt Q12532: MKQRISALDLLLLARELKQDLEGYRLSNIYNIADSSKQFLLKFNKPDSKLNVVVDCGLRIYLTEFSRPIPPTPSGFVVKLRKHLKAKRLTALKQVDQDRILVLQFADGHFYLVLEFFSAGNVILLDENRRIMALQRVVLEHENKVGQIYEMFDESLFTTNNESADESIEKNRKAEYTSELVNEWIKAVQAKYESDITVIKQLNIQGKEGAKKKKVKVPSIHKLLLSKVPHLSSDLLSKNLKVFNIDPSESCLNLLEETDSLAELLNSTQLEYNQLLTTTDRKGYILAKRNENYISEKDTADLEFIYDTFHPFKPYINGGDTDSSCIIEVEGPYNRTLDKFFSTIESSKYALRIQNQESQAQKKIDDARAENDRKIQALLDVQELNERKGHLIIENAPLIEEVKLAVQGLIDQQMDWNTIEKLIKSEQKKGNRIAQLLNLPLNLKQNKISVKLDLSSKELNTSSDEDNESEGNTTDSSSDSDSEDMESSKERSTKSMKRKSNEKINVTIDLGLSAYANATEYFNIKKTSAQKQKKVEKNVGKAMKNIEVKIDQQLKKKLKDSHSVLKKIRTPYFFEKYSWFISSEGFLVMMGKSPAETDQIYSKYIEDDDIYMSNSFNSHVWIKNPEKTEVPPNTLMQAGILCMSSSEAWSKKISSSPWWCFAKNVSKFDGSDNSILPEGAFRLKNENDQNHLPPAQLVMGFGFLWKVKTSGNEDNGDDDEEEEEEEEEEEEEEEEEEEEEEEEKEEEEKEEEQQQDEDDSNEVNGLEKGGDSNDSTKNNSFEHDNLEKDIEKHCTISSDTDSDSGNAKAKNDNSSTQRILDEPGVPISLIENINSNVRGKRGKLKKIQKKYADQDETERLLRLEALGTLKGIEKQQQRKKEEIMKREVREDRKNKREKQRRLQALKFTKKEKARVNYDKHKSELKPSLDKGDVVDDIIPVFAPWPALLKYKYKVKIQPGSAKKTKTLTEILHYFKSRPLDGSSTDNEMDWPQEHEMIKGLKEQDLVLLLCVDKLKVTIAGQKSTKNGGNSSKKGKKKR
UniProt P25694: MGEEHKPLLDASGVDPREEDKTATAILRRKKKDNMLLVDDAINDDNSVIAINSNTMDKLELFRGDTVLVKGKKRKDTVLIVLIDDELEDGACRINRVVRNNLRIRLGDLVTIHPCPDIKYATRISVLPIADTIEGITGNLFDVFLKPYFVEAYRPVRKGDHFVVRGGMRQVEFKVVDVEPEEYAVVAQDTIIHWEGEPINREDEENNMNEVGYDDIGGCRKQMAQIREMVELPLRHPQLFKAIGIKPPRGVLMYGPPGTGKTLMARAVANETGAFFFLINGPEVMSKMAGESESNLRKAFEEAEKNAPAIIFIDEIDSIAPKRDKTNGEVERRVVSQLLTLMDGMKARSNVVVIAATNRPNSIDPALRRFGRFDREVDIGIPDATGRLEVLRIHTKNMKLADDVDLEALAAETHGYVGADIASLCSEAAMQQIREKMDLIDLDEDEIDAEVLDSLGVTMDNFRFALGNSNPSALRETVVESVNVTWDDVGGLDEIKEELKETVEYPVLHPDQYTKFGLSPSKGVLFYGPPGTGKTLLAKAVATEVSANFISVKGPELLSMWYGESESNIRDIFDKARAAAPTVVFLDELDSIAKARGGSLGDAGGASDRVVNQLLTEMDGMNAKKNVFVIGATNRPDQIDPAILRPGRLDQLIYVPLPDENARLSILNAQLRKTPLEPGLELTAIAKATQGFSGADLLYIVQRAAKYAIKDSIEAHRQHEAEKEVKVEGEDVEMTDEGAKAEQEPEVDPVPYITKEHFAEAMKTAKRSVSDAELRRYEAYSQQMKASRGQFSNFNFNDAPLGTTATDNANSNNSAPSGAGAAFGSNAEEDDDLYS

No constants are given. Whether binding was seen depends on the method and setting. Binding seen in cells or lysates may run through a third protein. Some results given as binding are weak or reduced against the parent protein; the word gives no strength. For some of these results: Sequences can lack the tags named with a protein.

One test deals with Ltn1p-HA (S. cerevisiae) (UniProt Q04781). Put plainly: co-IP; anti-HA magnetic beads; lysate of the cognate double mutant yeast strain co-expressing Vms1p-V5 (or VMS1 mutant) and a His6-HA2 tagged RQC component; IP buffer 20 mM Tris pH 7.4, 50 mM NaCl, 0.2% Triton X-100; 4 h incubation; immunoblot of HA and V5. A general note: A western blot detects proteins with antibodies after separation by electrophoresis.

For another test, the target named is T1, Rqc1p-HA (S. cerevisiae) (UniProt Q05468).
T1 sequence: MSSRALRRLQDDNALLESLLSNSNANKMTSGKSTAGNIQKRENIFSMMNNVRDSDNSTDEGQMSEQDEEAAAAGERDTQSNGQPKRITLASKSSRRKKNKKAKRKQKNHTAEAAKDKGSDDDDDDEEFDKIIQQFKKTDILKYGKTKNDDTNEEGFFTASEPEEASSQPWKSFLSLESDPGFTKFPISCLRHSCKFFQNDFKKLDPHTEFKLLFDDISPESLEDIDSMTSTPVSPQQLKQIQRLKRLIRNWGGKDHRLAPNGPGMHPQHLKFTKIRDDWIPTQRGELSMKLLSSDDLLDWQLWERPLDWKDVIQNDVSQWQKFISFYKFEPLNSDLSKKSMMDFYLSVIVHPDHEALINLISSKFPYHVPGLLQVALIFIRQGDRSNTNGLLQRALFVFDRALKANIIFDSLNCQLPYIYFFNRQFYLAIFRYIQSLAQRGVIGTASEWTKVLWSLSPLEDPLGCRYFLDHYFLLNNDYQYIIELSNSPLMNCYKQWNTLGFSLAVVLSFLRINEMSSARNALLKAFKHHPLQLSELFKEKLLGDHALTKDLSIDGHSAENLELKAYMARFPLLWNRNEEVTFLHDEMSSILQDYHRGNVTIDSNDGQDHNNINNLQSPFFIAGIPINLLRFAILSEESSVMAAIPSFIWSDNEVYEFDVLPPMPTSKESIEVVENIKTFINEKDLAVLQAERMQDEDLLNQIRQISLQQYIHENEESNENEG
Described as above.

A further test concerns the target Rqc2p-HA (S. cerevisiae) (UniProt Q12532). The test is described as above.
Another test has as its target Cdc48p (S. cerevisiae) (UniProt P25694). Put plainly: co-IP; Supplementary Fig. 3e; who was precipitated and how Cdc48p was detected is not given.

B1: Vms1p-V5 (protein, UniProt Q04311 1-632)
chain: MNSQKASKMTGSLKKNDLYIFDLSEQLLNSLKLMSFDSTLREVEVEKTSDNDRNKESGDLQIARKKVTSNVMRCSVCQMSFDSRNEQKAHYQTDYHLMNVKRNLRGLDILSVEEFDALISKEHGIKSEDENSGGEQTSSDHEESEEASDRDPDLQTNNYMETIIENDLQKLGFQKDESDAISHINTQSPYIYFKSKYLQKNEVLAIYKSLFNKRSLSNPNEALTFWNSQENPMAISALFMVGGGHFAGAIVSHQRLNVKGNAHKKDETLIEQAVNFLEHKTFHRYTTRRKQGGSQSAMDNAKGKANSAGSALRRYNESALKTDIQGVLKDWEPYLSKCDNIFIRARNVSDKKIFTDNTVLNKGDERIKSFPFTTNRPTVLELKKAWCELSYLKILPKPEPLAVKETVQKLEVSNKKDEFKEKQEPLLEEIQTEEIISLLKKGRAPLLISFLKKNKLDGNFRLKPESKYSLTPTMLHYASQQGMKQMALILLSNIKCDPTIKNRLGRTAWDLNRNDDVRHAFQIARYNLGESFTNWDETHIGQPLSREQVDEINEKKKAIENEKAEKLIKLELEAAKEKQRFAKDAERGPGKKLTNIPSIQQQNLNSLTDEQRRRLMREQRARAAEERMKKKY
Turning to B1, the binding result with Ltn1p-HA (S. cerevisiae) is “binds weakly”; with Rqc1p-HA (S. cerevisiae), “binds weakly”; with Rqc2p-HA (S. cerevisiae), “binds”.

B2: Vms1p 1–417 truncation mutant (domain or fragment, UniProt Q04311 1-417)
chain: MNSQKASKMTGSLKKNDLYIFDLSEQLLNSLKLMSFDSTLREVEVEKTSDNDRNKESGDLQIARKKVTSNVMRCSVCQMSFDSRNEQKAHYQTDYHLMNVKRNLRGLDILSVEEFDALISKEHGIKSEDENSGGEQTSSDHEESEEASDRDPDLQTNNYMETIIENDLQKLGFQKDESDAISHINTQSPYIYFKSKYLQKNEVLAIYKSLFNKRSLSNPNEALTFWNSQENPMAISALFMVGGGHFAGAIVSHQRLNVKGNAHKKDETLIEQAVNFLEHKTFHRYTTRRKQGGSQSAMDNAKGKANSAGSALRRYNESALKTDIQGVLKDWEPYLSKCDNIFIRARNVSDKKIFTDNTVLNKGDERIKSFPFTTNRPTVLELKKAWCELSYLKILPKPEPLAVKETVQKLEVSNKKD
Consider B2, for which the binding entry with Cdc48p (S. cerevisiae) is “no binding”.
